Measurements: PMC7057672
These are yes or no findings as the source states them, for the method shown. In cells and extracts the contact can be indirect. These calls come from enrichment with a bait or labelling near it, and not all partners need be listed.

By UniProt entry, the sequences of proteins in these tests, tags left out. Where a name states a change or a piece, a line headed by the entry shows the natural chain unless it says otherwise.
UniProt Q07133: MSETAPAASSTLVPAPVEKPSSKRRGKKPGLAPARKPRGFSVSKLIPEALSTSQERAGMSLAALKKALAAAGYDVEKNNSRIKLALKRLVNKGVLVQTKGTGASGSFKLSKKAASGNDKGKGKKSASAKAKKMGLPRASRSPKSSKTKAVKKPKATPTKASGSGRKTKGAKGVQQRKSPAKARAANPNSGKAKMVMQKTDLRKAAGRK
UniProt P17156: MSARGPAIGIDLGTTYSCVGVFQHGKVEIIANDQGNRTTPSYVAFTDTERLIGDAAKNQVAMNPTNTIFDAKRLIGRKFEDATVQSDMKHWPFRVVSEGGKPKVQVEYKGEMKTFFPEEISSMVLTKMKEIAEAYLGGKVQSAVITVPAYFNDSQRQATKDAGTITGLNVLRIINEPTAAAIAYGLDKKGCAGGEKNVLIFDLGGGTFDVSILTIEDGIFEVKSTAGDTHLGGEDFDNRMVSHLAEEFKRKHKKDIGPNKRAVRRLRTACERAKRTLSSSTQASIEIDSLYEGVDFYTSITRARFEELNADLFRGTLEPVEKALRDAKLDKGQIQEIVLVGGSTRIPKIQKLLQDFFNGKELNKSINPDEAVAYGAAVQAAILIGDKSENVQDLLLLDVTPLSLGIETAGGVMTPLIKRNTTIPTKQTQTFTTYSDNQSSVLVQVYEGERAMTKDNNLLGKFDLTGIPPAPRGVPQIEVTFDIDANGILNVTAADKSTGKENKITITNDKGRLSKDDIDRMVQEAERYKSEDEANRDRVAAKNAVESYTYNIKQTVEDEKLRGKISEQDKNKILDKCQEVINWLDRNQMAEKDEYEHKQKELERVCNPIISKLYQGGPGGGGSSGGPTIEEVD
UniProt Q61879: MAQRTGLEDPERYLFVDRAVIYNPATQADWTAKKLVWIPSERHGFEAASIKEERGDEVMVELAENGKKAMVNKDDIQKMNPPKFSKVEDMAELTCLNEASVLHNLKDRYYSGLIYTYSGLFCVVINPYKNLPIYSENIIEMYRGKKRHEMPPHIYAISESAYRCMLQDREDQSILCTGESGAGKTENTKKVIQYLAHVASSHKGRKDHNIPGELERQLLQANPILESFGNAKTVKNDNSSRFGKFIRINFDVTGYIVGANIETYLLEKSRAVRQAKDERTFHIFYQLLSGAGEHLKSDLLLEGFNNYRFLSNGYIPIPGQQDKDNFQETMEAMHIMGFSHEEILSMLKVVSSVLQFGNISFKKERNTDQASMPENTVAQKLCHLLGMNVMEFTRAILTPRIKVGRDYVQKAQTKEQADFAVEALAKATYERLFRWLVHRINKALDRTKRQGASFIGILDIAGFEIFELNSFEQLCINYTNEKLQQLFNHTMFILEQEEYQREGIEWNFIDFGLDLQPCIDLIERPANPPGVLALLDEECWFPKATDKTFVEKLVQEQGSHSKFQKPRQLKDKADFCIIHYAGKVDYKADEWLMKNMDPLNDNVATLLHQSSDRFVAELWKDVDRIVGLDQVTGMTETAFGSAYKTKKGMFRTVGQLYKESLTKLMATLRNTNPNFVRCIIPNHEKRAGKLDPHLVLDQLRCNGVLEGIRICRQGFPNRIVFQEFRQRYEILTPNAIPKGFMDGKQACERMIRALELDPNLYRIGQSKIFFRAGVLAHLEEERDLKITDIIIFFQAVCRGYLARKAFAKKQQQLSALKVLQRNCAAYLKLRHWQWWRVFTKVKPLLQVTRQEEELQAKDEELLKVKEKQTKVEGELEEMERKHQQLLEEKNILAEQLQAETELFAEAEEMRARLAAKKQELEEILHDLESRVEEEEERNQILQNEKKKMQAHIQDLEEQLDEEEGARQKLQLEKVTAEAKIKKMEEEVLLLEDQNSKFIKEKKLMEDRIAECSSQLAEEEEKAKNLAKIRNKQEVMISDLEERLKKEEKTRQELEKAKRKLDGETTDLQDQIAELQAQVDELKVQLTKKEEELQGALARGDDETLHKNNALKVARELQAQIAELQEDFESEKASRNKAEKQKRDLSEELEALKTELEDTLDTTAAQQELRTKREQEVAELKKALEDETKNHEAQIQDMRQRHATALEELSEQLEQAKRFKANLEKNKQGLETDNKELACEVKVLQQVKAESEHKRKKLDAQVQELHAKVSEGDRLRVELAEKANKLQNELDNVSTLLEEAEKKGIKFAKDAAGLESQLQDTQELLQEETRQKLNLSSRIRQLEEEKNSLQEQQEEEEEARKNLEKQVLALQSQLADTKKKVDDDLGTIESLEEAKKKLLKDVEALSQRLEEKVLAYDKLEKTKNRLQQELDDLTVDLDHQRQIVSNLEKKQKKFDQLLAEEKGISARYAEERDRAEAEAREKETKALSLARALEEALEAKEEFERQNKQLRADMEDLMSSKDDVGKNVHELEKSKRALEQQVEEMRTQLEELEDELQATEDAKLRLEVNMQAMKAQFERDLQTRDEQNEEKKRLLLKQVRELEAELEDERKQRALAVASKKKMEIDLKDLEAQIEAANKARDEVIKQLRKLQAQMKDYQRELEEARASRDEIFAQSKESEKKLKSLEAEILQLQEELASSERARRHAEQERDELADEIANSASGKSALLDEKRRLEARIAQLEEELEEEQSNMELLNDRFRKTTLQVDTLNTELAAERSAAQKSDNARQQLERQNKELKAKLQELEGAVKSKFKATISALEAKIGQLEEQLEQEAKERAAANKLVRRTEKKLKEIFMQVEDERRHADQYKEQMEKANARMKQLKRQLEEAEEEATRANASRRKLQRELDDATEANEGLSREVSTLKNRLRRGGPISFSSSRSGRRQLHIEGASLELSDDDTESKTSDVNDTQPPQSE
UniProt O08638: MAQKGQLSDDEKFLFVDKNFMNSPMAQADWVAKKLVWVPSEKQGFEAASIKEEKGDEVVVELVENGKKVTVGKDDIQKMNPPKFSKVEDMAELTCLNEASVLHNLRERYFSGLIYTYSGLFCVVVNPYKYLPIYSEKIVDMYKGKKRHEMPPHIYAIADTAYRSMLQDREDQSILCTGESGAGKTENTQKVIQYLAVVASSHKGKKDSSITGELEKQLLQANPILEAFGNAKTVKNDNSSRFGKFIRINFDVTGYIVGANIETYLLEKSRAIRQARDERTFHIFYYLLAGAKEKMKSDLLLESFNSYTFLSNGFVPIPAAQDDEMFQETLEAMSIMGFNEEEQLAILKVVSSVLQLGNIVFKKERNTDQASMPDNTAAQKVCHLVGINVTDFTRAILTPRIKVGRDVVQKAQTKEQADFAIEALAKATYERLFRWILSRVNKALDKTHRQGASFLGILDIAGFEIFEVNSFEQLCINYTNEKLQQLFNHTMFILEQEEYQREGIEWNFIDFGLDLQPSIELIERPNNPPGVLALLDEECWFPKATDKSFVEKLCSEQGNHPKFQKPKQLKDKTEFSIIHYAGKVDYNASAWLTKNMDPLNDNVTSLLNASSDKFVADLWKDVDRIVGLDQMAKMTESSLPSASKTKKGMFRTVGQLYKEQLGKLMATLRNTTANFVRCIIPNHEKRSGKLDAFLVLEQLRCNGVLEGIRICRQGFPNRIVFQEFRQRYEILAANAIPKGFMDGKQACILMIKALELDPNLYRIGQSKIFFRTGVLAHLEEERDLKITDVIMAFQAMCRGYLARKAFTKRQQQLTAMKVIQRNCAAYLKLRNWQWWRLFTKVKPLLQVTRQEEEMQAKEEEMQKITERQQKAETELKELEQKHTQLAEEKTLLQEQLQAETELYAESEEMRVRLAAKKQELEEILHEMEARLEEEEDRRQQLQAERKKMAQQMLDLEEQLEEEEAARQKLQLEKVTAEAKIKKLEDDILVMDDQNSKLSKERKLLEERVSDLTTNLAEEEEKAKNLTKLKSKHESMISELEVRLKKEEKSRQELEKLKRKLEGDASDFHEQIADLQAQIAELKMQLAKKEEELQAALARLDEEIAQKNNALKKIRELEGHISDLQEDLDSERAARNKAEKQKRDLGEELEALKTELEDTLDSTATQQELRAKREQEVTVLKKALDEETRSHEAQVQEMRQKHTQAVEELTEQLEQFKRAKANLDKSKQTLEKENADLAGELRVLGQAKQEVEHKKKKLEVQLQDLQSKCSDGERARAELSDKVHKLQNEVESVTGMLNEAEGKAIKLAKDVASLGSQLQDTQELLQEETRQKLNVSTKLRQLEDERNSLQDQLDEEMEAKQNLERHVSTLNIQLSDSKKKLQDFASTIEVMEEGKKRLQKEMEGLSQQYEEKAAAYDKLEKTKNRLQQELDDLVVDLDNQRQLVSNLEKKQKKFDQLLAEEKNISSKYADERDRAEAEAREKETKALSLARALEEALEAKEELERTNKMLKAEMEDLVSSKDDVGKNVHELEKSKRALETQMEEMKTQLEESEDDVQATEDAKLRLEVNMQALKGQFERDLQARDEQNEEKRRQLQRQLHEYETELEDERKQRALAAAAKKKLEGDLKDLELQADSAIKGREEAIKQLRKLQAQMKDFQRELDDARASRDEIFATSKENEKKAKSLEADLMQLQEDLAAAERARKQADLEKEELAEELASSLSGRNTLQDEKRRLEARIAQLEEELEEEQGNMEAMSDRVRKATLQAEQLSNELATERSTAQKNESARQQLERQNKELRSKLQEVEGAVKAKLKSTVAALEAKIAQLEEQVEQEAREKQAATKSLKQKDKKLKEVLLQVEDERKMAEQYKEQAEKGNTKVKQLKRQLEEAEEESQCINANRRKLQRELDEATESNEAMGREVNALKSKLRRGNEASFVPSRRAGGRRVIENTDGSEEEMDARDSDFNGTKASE
UniProt Q61937: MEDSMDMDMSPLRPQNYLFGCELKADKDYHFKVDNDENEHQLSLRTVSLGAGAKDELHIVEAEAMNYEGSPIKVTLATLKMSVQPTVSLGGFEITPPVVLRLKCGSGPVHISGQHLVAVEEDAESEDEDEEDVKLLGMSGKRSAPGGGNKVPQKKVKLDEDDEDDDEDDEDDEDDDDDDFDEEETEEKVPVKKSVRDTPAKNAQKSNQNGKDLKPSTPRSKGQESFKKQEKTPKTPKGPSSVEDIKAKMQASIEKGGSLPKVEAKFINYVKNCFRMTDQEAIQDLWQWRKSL
UniProt Q9JMB7: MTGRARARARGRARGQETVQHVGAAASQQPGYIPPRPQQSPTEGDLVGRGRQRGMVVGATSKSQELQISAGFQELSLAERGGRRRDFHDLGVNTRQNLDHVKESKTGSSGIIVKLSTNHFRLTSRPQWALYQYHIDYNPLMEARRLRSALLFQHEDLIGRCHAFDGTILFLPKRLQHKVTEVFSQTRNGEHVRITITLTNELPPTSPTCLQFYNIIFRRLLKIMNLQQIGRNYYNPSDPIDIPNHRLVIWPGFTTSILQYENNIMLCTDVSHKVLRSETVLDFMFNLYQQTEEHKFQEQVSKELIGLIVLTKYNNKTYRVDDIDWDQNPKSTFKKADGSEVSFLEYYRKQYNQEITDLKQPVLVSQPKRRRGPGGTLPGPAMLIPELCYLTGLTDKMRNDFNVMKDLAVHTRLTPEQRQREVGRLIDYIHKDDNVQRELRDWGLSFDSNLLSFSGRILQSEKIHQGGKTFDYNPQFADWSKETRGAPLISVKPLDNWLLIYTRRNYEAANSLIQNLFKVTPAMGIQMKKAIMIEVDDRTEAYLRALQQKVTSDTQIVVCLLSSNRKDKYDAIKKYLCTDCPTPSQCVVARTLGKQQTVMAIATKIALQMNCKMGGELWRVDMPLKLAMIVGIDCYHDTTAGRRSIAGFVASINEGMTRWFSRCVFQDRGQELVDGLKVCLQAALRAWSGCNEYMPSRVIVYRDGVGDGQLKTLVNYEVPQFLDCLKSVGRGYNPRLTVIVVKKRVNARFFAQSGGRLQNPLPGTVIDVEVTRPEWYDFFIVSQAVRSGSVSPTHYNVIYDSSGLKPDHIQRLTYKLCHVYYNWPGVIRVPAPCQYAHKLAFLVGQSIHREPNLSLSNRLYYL

Target: linker histone variant H1t (mouse (endogenous in P20 mouse testicular cells)) (UniProt Q07133)
Test: affinity purification with mass spectrometry; H1t ChIP/IP from P20 mouse testicular chromatin, eluted with the elution buffer of the Pierce co-IP kit, resolved on 15% SDS gel; proteins enriched over the non-specific rabbit IgG fraction

Row | binding | Molecule
1 | binds | Hspa2 (from UniProt P17156 1-633)
2 | binds | Myh10 (from UniProt Q61879 1-1976)
3 | binds | Myh11 (from UniProt O08638 1-1972)
4 | binds | Ncl (from UniProt P09405 1-707)
5 | binds | Npm1 (from UniProt Q61937 1-292)
6 | binds | Numa1 (from UniProt E9Q7G0 1-2094)
7 | binds | Piwil1 (from UniProt Q9JMB7 1-862)
8 | binds | MAEL (protein, UniProt Q8BVN9 1-434) MPNRRASRNAYYFFVQEKIPELRRRGLPVARVADAIPYCSADWALLREDEKEKYSEMAREWRAAQGKDSGPSEKQKLVSTPLRRPGMLVPKPSISPPDMSNLSIKSDQALLGGIFYFLNIFSHGELPPHCEQRFLPCEIGCVKYSLQEGIMADFHSFIHPGEIPRGFRFHCQAASDSSHKIPISNFEFGHDQATVLQNLYKFIHPNPGNWPPIYCKSDDRARVNWCLKRMERASEIRQDLELLTVEDLVVGIYQQKFLKEPSKTWVRSLLDVAMWDYSSNTRCKWHEENDILFCALAVCKKIAYCISNSLATLFGIQLTGAHVPLQDYEASNSVTPKMVVLDAGRYQKLRVESPGFCHFNSYNQEQRSNTSTGYYPSGVKISGPHSSVRGRGITRLLESISNSSNNIHRFSSCETSLSPYTPQKDGYKPFSSFS
9 | binds | Tdkrh (protein, UniProt Q80VL1 1-560) MSTERTSWTNLSTIQKIALGLGIPASATVAYILYRRYRESREERLTFVGEDDIEIEMRVPQEAVKLIIGRQGANIKQLRKQTGARIDVDTEDVGDERVLLISGFPVQVCKAKAAIHQILTENTPVFEQLSVPQRSVGRIIGRGGETIRSICKASGAKITCDKESEGTLLLSRLIKISGTQKEVAAAKHLILEKVSEDEELRKRIAHSAETRVPRKQPISVRREEVTEPGGAGEAALWKNTNSSMGPATPLEVPLRKGGGDMVVVGPKEGSWEKPNDDSFQNSGAQSSPETSMFEIPSPDFSFHADEYLEVYVSASEHPNHFWIQIIGSRSLQLDKLVSEMTQHYENSLPEDLTVHVGDIVAAPLSTNGSWYRARVLGTLENGNLDLYFVDFGDNGDCALKDLRALRSDFLSLPFQAIECSLARIAPTGEEWEEEALDEFDRLTHCADWKPLVAKISSYVQTGISTWPKIYLYDTSDEKKLDIGLELVRKGYAVELPEDMEENRTVPNMLKDMATETDDSLASILTETKKSPEEMPHTLSCLSLSEAASMSGDDNLEDDLF
10 | binds | Uhrf1 (protein, UniProt Q8VDF2 1-782) MWIQVRTMDGKETHTVNSLSRLTKVQELRKKIEEVFHVEPQLQRLFYRGKQMEDGHTLFDYDVRLNDTIQLLVRQSLALPLSTKERDSELSDSDSGYGVGHSESDKSSTHGEGAAEADDKTVWEDTDLGLYKVNEYVDVRDNIFGAWFEAQVVQVQKRALSEDEPCSSSAVKTSEDDIMYHVKYDDYPEHGVDIVKAKNVRARARTVIPWENLEVGQVVMANYNVDYPRKRGFWYDVEICRKRQTRTARELYGNIRLLNDSQLNNCRIMFVDEVLMIELPKERRPLIASPSQPPPALRNTGKSGPSCRFCKDDENKPCRKCACHVCGGREAPEKQLLCDECDMAFHLYCLKPPLTSVPPEPEWYCPSCRTDSSEVVQAGEKLKESKKKAKMASATSSSRRDWGKGMACVGRTTECTIVPANHFGPIPGVPVGTMWRFRVQVSESGVHRPHVAGIHGRSNDGAYSLVLAGGYEDDVDNGNYFTYTGSGGRDLSGNKRTAGQSSDQKLTNNNRALALNCHSPINEKGAEAEDWRQGKPVRVVRNMKGGKHSKYAPAEGNRYDGIYKVVKYWPERGKSGFLVWRYLLRRDDTEPEPWTREGKDRTRQLGLTMQYPEGYLEALANKEKSRKRPAKALEQGPSSSKTGKSKQKSTGPTLSSPRASKKSKLEPYTLSEQQANLIKEDKGNAKLWDDVLTSLQDGPYQIFLSKVKEAFQCICCQELVFRPVTTVCQHNVCKDCLDRSFRAQVFSCPACRFELDHSSPTRVNQPLQTILNQLFPGYGSGR
